# According to PubChem BioAssay AID250 (DTP/NCI, 2004):
# The list shows only some results of the screen, not a fair sample: it gathers some chemical classes. Other doses and runs of a compound may be missing. T/C is the treated group as % of the vehicle group. For survival time, the PubChem record calls one and a half times the control and up active, and a quarter to a half above the control has no call in these data; cut-offs in other NCI protocols can differ. Some entries show no survivor count and are marked so; the dose need not have been tolerated. Schedules are NCI's codes, read here as Q, the interval in days (D) or hours (H), X, the number of doses. Some schedules carry Z or #; the key to these is not given. Some entries hold several experiments; their values stand side by side, smallest first.
# What was measured:
# [1] = test system: BDF1 mice, L1210 leukemia sc; test: NCI In Vivo Anticancer Drug Screen. Data for tumor model L1210 Leukemia (subcutaneous) in B6D2F1 (BDF1) mice; settings: T/C endpoint: median survival time, higher T/C = longer survival
# Experimental: (§1) The antitumor activity of compounds was measured in mice bearing transplantable tumors. Survival or tumor size were measured and the results are expressed as the measurement made in the treated group (T) divided by the measurement made in the vehicle treated control group (C). The tumor model used in this assay is L1210 Leukemia (subcutaneous) in B6D2F1 (BDF1) mice
# [2] = test system: BDF1 mice, L1210 leukemia sc, survival T/C; test: as above; settings: T/C endpoint: median survival time, higher T/C = longer survival
# Experimental: as §1
# [3] = dose: 23.0 mg/kg/injection, schedule: Q01DX Z (sc), vehicle: saline
# [4] = dose: 39.0 mg/kg/injection, schedule: Q01DX Z (sc), vehicle: saline
# [5] = dose: 65.0 mg/kg/injection, schedule: Q01DX Z (sc), vehicle: saline
# [6] = dose: 108.0 mg/kg/injection, schedule: Q01DX Z (sc), vehicle: saline
# [7] = dose: 180.0 mg/kg/injection, schedule: Q01DX Z (sc), vehicle: saline
# [8] = dose: 14.0 mg/kg/injection, schedule: Q01DX Z (sc), vehicle: saline
# [9] = dose: 8.4 mg/kg/injection, schedule: Q01DX Z (sc), vehicle: saline
# [10] = dose: 3.0 mg/kg/injection, schedule: Q01DX Z (sc), vehicle: saline
# [11] = dose: 5.0 mg/kg/injection, schedule: Q01DX Z (sc), vehicle: saline
compound,measurement,setting,value
NC1CCCCC1.NP(=O)(O)N(CCCl)CCCl,T/C,[1]; [3],127 % of control [survivor count not shown]
same,T/C,[1]; [4],125 [survivor count not shown] and 133 % of control [survivor count not shown]
same,T/C,[1]; [5],134 [survivor count not shown] and 144 % of control [survivor count not shown]
same,T/C,"[1]; dose: 65.0 mg/kg/injection, schedule: Q02DX Z (sc), vehicle: saline",133 % of control [survivor count not shown]
same,T/C,"[1]; dose: 108.0 mg/kg/injection, schedule: Q01DX001 (sc), vehicle: saline",127 % of control [survivor count not shown]
same,T/C,[1]; [6],125 [survivor count not shown] and 144 % of control [survivor count not shown]
same,T/C,[1]; [7],133 % of control [survivor count not shown]
same,T/C,"[1]; dose: 180.0 mg/kg/injection, schedule: Q02DX Z (sc), vehicle: saline",144 % of control [survivor count not shown]
same,T/C,"[2]; dose: 8.4 mg/kg/injection, schedule: Q01DX Z (ip), vehicle: saline",86 % of control [survivor count not shown]
same,T/C,"[2]; dose: 14.0 mg/kg/injection, schedule: Q01DX Z (ip), vehicle: saline",91 % of control [survivor count not shown]
same,T/C,[2]; [8],106 % of control [survivor count not shown]
same,T/C,"[2]; dose: 23.0 mg/kg/injection, schedule: Q01DX Z (ip), vehicle: saline",95 % of control [survivor count not shown]
same,T/C,[2]; [3],100 [survivor count not shown] and 112 % of control [survivor count not shown]
same,T/C,"[2]; dose: 23.0 mg/kg/injection, schedule: Q02DX Z (sc), vehicle: saline",111 % of control [survivor count not shown]
same,T/C,"[2]; dose: 39.0 mg/kg/injection, schedule: Q01DX Z (ip), vehicle: saline",104 % of control [survivor count not shown]
same,T/C,[2]; [4],113 % of control [survivor count not shown]
same,T/C,"[2]; dose: 39.0 mg/kg/injection, schedule: Q02DX Z (sc), vehicle: saline",122 % of control [survivor count not shown]
same,T/C,"[2]; dose: 39.0 mg/kg/injection, schedule: Q## X Z (sc), vehicle: saline",116 % of control [survivor count not shown]
same,T/C,"[2]; dose: 65.0 mg/kg/injection, schedule: Q01DX001 (sc), vehicle: saline",122 % of control [survivor count not shown]
same,T/C,"[2]; dose: 65.0 mg/kg/injection, schedule: Q01DX Z (ip), vehicle: saline",121 % of control [survivor count not shown]
same,T/C,"[2]; dose: 65.0 mg/kg/injection, schedule: Q01DX Z (oral), vehicle: saline",95 % of control [survivor count not shown]
same,T/C,[2]; [5],168 % of control [survivor count not shown]
same,T/C,"[2]; dose: 65.0 mg/kg/injection, schedule: Q## X Z (sc), vehicle: saline",111 % of control [survivor count not shown]
same,T/C,"[2]; dose: 108.0 mg/kg/injection, schedule: Q01DX Z (ip), vehicle: saline",104 % of control [survivor count not shown]
same,T/C,"[2]; dose: 108.0 mg/kg/injection, schedule: Q01DX Z (oral), vehicle: saline",86 % of control [survivor count not shown]
same,T/C,[2]; [6],117 % of control [survivor count not shown]
same,T/C,"[2]; dose: 108.0 mg/kg/injection, schedule: Q02DX Z (sc), vehicle: saline",161 % of control [survivor count not shown]
same,T/C,"[2]; dose: 108.0 mg/kg/injection, schedule: Q## X Z (sc), vehicle: saline",155 % of control [survivor count not shown]
same,T/C,"[2]; dose: 180.0 mg/kg/injection, schedule: Q01DX001 (sc), vehicle: saline",155 % of control [survivor count not shown]
same,T/C,"[2]; dose: 180.0 mg/kg/injection, schedule: Q01DX Z (oral), vehicle: saline",95 % of control [survivor count not shown]
same,T/C,[2]; [7],95 [survivor count not shown] and 118 % of control [survivor count not shown]
same,T/C,"[2]; dose: 180.0 mg/kg/injection, schedule: Q## X Z (sc), vehicle: saline",155 % of control [survivor count not shown]
same,T/C,"[2]; dose: 300.0 mg/kg/injection, schedule: Q01DX Z (oral), vehicle: saline",108 % of control [survivor count not shown]
same,T/C,"[2]; dose: 300.0 mg/kg/injection, schedule: Q01DX Z (sc), vehicle: saline",106 % of control [survivor count not shown]
same,T/C,"[2]; dose: 300.0 mg/kg/injection, schedule: Q02DX Z (sc), vehicle: saline",122 % of control [survivor count not shown]
NC(Cc1cccc(N(CCCl)CCCl)c1)C(=O)O (stereo not drawn),T/C,[1]; [9],133 % of control [survivor count not shown]
same,T/C,[2]; [10],100 % of control [survivor count not shown]
same,T/C,[2]; [11],122 % of control [survivor count not shown]
same,T/C,[2]; [8],122 % of control [survivor count not shown]
same,T/C,[2]; [3],122 % of control [survivor count not shown]
same,T/C,[2]; [4],122 % of control [survivor count not shown]
same,T/C,[2]; [5],122 % of control [survivor count not shown]
same,T/C,[2]; [6],111 % of control [survivor count not shown]
O[C@@H](CNCCCl)[C@@H](O)CNCCCl,T/C,[1]; [5],136 % of control [survivor count not shown]
same,T/C,[1]; [6],136 % of control [survivor count not shown]
same,T/C,[1]; [7],126 % of control [survivor count not shown]
same,T/C,[2]; [11],105 % of control [survivor count not shown]
same,T/C,[2]; [9],110 % of control [survivor count not shown]
same,T/C,[2]; [3],163 % of control [survivor count not shown]
same,T/C,[2]; [4],152 % of control [survivor count not shown]
NC(Cc1ccccc1N(CCCl)CCCl)C(=O)O (stereo not drawn),T/C,"[1]; dose: 1.8 mg/kg/injection, schedule: Q01DX Z (sc), vehicle: saline",133 % of control [survivor count not shown]
same,T/C,[1]; [10],133 % of control [survivor count not shown]
same,T/C,[2]; [11],122 % of control [survivor count not shown]
same,T/C,[2]; [9],122 % of control [survivor count not shown]
same,T/C,[2]; [8],122 % of control [survivor count not shown]
same,T/C,[2]; [3],122 % of control [survivor count not shown]
same,T/C,[2]; [4],122 % of control [survivor count not shown]
same,T/C,[2]; [5],111 % of control [survivor count not shown]
Cn1c(=O)[nH]cc(N(CCCl)CCCl)c1=O,T/C,"[1]; dose: 8.4 mg/kg/injection, schedule: Q01DX Z (sc), vehicle: methylcellulose (MC)",138 % of control [survivor count not shown]
same,T/C,"[1]; dose: 14.0 mg/kg/injection, schedule: Q01DX Z (sc), vehicle: methylcellulose (MC)",127 % of control [survivor count not shown]
same,T/C,"[2]; dose: 5.0 mg/kg/injection, schedule: Q01DX Z (sc), vehicle: methylcellulose (MC)",112 [survivor count not shown] and 122 % of control [survivor count not shown]
same,T/C,"[2]; dose: 23.0 mg/kg/injection, schedule: Q01DX Z (sc), vehicle: methylcellulose (MC)",122 % of control [survivor count not shown]
same,T/C,"[2]; dose: 39.0 mg/kg/injection, schedule: Q01DX Z (sc), vehicle: methylcellulose (MC)",122 % of control [survivor count not shown]
